# In the supplement of paper PMC10849652:
# By UniProt entry, the sequences of proteins in these tests, tags left out. Where a name states a change or a piece, a line headed by the entry shows the natural chain unless it says otherwise.
# UniProt Q66K74: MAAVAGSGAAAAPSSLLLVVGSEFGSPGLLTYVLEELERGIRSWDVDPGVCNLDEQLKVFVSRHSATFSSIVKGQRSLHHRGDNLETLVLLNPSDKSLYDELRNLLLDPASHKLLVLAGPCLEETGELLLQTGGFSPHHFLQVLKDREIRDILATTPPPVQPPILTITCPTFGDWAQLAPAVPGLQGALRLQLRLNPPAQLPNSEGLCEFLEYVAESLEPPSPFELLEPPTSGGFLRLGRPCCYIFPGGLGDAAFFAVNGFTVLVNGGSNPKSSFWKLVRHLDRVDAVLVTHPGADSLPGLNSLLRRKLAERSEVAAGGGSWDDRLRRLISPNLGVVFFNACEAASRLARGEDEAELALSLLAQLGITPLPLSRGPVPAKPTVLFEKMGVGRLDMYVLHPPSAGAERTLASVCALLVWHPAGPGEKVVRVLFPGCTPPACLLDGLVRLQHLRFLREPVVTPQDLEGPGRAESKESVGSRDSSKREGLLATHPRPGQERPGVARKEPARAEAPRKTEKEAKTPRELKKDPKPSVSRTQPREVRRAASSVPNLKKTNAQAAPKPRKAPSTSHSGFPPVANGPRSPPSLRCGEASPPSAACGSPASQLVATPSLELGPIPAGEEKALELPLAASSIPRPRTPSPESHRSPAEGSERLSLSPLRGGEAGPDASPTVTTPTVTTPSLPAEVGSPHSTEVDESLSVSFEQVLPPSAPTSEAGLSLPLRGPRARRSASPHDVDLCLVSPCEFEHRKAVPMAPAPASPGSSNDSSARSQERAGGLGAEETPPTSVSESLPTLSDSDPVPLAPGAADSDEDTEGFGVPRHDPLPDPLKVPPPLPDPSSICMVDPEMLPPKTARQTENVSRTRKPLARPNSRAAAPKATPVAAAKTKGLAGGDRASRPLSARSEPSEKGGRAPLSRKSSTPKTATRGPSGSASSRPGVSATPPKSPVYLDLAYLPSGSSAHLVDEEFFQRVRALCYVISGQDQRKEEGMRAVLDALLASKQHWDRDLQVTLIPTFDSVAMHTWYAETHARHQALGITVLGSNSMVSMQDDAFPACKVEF
# UniProt Q9BQ69: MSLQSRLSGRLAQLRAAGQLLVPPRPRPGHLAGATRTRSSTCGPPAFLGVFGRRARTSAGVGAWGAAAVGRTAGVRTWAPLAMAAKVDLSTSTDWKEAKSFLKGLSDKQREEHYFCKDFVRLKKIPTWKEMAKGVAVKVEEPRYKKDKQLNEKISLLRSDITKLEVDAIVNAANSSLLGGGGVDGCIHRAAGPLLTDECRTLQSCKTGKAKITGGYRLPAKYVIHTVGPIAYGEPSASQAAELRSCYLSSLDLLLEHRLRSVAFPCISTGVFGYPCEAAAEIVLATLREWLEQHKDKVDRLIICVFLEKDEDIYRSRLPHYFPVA
# UniProt Q16539, whole entry, looked up: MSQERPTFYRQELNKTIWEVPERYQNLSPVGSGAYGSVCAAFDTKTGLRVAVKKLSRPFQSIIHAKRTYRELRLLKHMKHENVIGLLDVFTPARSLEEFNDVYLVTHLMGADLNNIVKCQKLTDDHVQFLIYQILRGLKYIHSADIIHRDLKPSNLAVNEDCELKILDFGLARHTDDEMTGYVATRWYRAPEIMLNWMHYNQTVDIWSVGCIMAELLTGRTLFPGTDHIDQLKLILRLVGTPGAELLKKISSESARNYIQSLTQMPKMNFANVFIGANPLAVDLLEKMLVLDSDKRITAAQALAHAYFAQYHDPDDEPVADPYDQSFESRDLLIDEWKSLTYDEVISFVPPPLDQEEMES
# UniProt Q8WWC4: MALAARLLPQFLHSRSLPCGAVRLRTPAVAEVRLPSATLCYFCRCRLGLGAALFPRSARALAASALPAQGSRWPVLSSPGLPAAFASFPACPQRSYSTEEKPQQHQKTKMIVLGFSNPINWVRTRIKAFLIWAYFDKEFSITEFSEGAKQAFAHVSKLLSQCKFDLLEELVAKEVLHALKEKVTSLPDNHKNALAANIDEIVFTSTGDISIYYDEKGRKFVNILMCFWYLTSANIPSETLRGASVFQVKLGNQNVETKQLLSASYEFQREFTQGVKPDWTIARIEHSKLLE
# UniProt P56192: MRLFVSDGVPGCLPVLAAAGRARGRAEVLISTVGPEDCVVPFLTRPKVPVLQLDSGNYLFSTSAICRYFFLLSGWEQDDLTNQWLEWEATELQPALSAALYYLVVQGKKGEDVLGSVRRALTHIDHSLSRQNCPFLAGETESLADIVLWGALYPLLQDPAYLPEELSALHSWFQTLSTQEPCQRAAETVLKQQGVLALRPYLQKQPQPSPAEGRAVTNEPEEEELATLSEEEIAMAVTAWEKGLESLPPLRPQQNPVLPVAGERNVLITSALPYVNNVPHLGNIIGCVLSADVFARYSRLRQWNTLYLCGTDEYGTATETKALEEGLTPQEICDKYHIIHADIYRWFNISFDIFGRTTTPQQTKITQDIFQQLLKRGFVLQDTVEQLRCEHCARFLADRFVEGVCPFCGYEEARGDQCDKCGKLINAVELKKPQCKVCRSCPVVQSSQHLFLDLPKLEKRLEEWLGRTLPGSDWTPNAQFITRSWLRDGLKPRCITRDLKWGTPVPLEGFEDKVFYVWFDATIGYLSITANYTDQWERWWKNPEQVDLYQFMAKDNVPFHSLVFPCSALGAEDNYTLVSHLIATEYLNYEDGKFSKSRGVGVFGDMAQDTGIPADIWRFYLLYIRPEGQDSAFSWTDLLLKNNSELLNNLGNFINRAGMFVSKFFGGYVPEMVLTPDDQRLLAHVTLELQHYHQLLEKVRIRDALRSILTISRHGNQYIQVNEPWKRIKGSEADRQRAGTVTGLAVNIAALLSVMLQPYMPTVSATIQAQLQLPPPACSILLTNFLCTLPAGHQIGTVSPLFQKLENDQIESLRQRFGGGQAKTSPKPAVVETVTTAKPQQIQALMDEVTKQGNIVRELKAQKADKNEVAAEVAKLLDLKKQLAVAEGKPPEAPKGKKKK
# UniProt Q96S90: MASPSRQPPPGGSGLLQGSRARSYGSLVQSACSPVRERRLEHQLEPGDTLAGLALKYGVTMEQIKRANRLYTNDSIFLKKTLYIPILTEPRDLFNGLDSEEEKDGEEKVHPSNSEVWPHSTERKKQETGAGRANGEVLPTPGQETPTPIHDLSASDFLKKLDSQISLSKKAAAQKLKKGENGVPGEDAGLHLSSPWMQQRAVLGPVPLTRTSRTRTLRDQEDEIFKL
# UniProt Q8WVR3: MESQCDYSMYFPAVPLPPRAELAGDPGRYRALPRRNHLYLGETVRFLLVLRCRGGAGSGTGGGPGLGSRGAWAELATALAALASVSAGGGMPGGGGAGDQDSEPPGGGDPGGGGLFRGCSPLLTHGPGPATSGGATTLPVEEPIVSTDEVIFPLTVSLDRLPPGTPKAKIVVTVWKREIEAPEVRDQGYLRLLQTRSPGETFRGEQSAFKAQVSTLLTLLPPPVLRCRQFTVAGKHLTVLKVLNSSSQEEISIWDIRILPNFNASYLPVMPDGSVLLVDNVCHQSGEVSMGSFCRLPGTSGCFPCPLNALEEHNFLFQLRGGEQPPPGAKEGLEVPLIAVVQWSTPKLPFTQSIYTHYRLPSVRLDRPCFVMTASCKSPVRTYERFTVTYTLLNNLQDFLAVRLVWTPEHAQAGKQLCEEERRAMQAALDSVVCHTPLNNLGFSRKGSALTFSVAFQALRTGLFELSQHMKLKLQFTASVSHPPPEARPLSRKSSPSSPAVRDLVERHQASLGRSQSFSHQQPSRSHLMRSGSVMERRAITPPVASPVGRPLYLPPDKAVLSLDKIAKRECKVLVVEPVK
# UniProt Q9NTJ4: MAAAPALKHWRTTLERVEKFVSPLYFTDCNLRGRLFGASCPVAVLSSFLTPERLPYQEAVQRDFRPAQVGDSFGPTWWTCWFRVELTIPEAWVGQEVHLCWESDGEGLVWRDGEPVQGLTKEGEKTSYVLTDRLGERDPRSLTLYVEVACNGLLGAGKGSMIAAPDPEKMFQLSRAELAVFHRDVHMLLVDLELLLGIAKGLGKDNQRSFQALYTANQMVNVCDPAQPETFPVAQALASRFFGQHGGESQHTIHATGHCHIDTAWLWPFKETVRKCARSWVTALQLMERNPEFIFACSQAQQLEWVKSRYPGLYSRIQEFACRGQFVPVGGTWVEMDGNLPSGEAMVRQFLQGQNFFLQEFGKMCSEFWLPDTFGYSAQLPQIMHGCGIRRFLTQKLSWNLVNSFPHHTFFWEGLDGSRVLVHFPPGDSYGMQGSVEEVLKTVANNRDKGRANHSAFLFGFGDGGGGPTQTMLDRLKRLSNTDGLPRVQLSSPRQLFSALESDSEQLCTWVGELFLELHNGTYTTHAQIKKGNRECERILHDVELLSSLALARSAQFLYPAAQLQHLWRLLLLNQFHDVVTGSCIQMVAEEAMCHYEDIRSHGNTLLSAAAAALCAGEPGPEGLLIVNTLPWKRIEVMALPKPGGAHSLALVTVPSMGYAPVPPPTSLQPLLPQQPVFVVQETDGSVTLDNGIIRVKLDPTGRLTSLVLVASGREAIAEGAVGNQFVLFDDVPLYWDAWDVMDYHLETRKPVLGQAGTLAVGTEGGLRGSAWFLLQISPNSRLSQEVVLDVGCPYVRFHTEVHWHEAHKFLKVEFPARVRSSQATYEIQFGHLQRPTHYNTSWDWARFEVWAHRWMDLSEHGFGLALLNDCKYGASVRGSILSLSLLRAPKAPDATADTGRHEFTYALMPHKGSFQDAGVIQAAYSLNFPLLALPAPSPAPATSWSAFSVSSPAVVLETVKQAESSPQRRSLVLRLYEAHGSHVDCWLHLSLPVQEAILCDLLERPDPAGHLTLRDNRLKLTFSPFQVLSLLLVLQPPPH
# UniProt P27816: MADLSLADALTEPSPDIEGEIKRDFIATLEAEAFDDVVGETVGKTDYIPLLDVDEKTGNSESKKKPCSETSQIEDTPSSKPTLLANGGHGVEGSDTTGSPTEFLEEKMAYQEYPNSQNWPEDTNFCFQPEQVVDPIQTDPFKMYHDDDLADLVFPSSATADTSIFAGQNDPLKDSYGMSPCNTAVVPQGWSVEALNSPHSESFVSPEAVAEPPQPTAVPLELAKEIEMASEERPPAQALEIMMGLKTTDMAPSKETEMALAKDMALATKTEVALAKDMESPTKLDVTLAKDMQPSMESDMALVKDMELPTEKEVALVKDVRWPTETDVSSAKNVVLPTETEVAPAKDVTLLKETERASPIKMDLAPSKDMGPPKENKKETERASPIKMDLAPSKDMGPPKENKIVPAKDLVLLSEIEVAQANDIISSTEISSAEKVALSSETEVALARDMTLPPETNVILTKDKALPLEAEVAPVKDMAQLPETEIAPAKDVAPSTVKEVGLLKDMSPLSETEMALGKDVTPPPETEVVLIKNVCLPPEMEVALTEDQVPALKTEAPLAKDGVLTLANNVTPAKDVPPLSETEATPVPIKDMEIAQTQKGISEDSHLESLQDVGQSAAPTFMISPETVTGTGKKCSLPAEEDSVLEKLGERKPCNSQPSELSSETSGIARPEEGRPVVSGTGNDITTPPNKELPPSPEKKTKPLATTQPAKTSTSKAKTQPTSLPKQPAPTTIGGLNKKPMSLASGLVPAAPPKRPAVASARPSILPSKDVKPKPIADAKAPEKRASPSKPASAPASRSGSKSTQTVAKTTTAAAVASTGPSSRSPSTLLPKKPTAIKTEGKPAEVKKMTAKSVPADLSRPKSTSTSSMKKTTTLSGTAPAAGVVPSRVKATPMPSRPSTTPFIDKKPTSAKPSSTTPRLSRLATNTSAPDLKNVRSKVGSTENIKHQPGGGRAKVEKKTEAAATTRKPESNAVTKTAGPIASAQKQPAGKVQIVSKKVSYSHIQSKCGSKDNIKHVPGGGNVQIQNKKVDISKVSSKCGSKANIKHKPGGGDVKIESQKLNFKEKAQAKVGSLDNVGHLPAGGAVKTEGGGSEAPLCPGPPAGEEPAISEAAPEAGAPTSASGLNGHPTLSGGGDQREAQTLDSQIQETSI
# UniProt Q9UI95, whole entry, looked up: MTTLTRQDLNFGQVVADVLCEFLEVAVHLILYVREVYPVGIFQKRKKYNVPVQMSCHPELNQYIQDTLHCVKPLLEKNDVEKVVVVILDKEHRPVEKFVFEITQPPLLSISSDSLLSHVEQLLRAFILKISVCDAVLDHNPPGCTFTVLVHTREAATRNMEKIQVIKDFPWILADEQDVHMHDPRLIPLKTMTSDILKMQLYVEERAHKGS
# This is one part of the list.
# Compound: C1COCCN1CCN2C3=CC=CC=C3N=C2NC(=O)C4=CC(=CC=C4)[N+](=O)[O-] [IRAK-1-4 Inhibitor I]
# Assay: log2 fold change, soluble protein after heating vs DMSO (PISA); higher = thermal stabilisation; K562 lysate, 10 uM; active = over 0.2 and 3.5 SD of the protein, either way, in both replicates (recomputed)
# Outline: (§1)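 Quantification was by TMTpro 16plex LC-MS/MS with equalised channel sums, applied to the supernatant after 21,000xg for 90 min. Samples were crude K562 extract at 1 mg/mL protein in PBS pH 7.4 with 1 mM MgCl2, treated with 10 μM compound for 30 min, heated for 3 min across 48°C-58°C, pooled and brought to 0.5% NP-40 at 4°C. Values are log-two fold changes in thermal stability relative to solvent controls, from duplicates.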
row,Target,log2 fold change
1,MAP1S (UniProt Q66K74),inactive: 0.01
2,MACROD1 (UniProt Q9BQ69),inactive: 0.081
3,MAPK14 (UniProt Q16539),inactive: 0.013
4,MAIP1 (UniProt Q8WWC4),inactive: 0.001
5,MAP3K20 isoform 2 (UniProt Q9NYL2),inactive: 0.07
6,LYAR (UniProt Q9NX58),inactive: -0.018
7,MARS (UniProt P56192),inactive: 0.002
8,MAP7D1 (UniProt Q3KQU3),inactive: 0.028
9,MAP2K2 (UniProt P36507),inactive: 0
10,LTN1 isoform 3 (UniProt O94822),inactive: 0.006
11,MAT2A (UniProt P31153),inactive: 0.012
12,LYSMD1 (UniProt Q96S90),inactive: 0.023
13,MAPRE2 (UniProt Q15555),inactive: -0.036
14,MAP3K7 (UniProt O43318),inactive: 0.038
15,LYN (UniProt P07948),inactive: 0.487
16,MAP11 (UniProt Q8WVR3),inactive: -0.02

row,Target,log2 fold change
1,MAP2K4 isoform 2 (UniProt P45985),inactive: 0.048
2,MAN2C1 isoform 4 (UniProt Q9NTJ4),inactive: 0.02
3,MAN2A2 (UniProt P49641),inactive: -0.054
4,LZTFL1 (UniProt Q9NQ48),inactive: 0.004
5,MAPK8 isoform 3 (UniProt P45983),inactive: -0.016
6,MACF1 isoform 3 (UniProt Q9UPN3),inactive: -0.006
7,MAN2A1 (UniProt Q16706),inactive: 0.019
8,MAN2B1 (UniProt O00754),inactive: 0.039
9,MAP2K1 (UniProt Q02750),inactive: 0.011
10,MAP4 isoform 5 (UniProt P27816),inactive: 0.112
11,MAD2L2 (UniProt Q9UI95),inactive: 0.004
12,MAP3K20 (UniProt Q9NYL2),inactive: -0.009
13,MARCKS (UniProt P29966),inactive: 0.049
14,MAP4 (UniProt E7EVA0),inactive: 0.037
15,MAF1 (UniProt Q9H063),inactive: -0.017
16,MAPK1 (UniProt P28482),inactive: -0.009

# Compound: C=CC(=O)N1CCC[C@@H](n2nc(-c3ccc(Oc4ccccc4)cc3)c3c(N)ncnc32)C1 [ibrutinib]
# Assay: as above
# Outline: as §1
row,Target,log2 fold change
1,MAP1S (UniProt Q66K74),inactive: -0.008
2,MACROD1 (UniProt Q9BQ69),inactive: 0
3,MAPK14 (UniProt Q16539),inactive: 0.042
4,MAIP1 (UniProt Q8WWC4),inactive: 0.007
5,MAP3K20 isoform 2 (UniProt Q9NYL2),inactive: 0.15
6,LYAR (UniProt Q9NX58),inactive: -0.009
7,MARS (UniProt P56192),inactive: 0.001
8,MAP7D1 (UniProt Q3KQU3),inactive: 0.035
9,MAP2K2 (UniProt P36507),inactive: 0.239
10,LTN1 isoform 3 (UniProt O94822),inactive: -0.036
11,MAT2A (UniProt P31153),inactive: -0.019
12,LYSMD1 (UniProt Q96S90),inactive: 0.069
13,MAPRE2 (UniProt Q15555),inactive: 0.004
14,MAP3K7 (UniProt O43318),inactive: 0.04
15,LYN (UniProt P07948),active: 1.15
16,MAP11 (UniProt Q8WVR3),inactive: 0.064

row,Target,log2 fold change
1,MAP2K4 isoform 2 (UniProt P45985),inactive: 0.051
2,MAN2C1 isoform 4 (UniProt Q9NTJ4),inactive: 0.051
3,MAN2A2 (UniProt P49641),inactive: 0.115
4,LZTFL1 (UniProt Q9NQ48),inactive: 0.006
5,MAPK8 isoform 3 (UniProt P45983),inactive: 0.038
6,MACF1 isoform 3 (UniProt Q9UPN3),inactive: 0
7,MAN2A1 (UniProt Q16706),inactive: -0.04
8,MAN2B1 (UniProt O00754),inactive: -0.02
9,MAP2K1 (UniProt Q02750),inactive: 0.204
10,MAP4 isoform 5 (UniProt P27816),inactive: 0.172
11,MAD2L2 (UniProt Q9UI95),inactive: -0.015
12,MAP3K20 (UniProt Q9NYL2),inactive: -0.192
13,MARCKS (UniProt P29966),inactive: 0.008
14,MAP4 (UniProt E7EVA0),inactive: 0.001
15,MAF1 (UniProt Q9H063),inactive: -0.007
16,MAPK1 (UniProt P28482),inactive: 0.001

# Compound: CC(=O)c1cnc2ccc(-c3cc(Cl)c(O)c(Cl)c3)nc2c1N[C@H]1CC[C@H](CN(C)C)CC1
# Assay: as above
# Outline: as §1
row,Target,log2 fold change
1,MAP1S (UniProt Q66K74),inactive: -0.026
2,MACROD1 (UniProt Q9BQ69),inactive: 0.015
3,MAPK14 (UniProt Q16539),inactive: 0.238
4,MAIP1 (UniProt Q8WWC4),inactive: -0.01
5,MAP3K20 isoform 2 (UniProt Q9NYL2),inactive: 0.012
6,LYAR (UniProt Q9NX58),inactive: -0.035
7,MARS (UniProt P56192),inactive: 0.001
8,MAP7D1 (UniProt Q3KQU3),inactive: 0.01
9,MAP2K2 (UniProt P36507),active: 0.443
10,LTN1 isoform 3 (UniProt O94822),inactive: 0.018
11,MAT2A (UniProt P31153),inactive: 0.006
12,LYSMD1 (UniProt Q96S90),inactive: 0.004
13,MAPRE2 (UniProt Q15555),inactive: -0.006
14,MAP3K7 (UniProt O43318),inactive: 0.088
15,LYN (UniProt P07948),inactive: 0.141
16,MAP11 (UniProt Q8WVR3),inactive: 0.072

row,Target,log2 fold change
1,MAP2K4 isoform 2 (UniProt P45985),inactive: 0.316
2,MAN2C1 isoform 4 (UniProt Q9NTJ4),inactive: -0.017
3,MAN2A2 (UniProt P49641),inactive: 0.015
4,LZTFL1 (UniProt Q9NQ48),inactive: -0.002
5,MAPK8 isoform 3 (UniProt P45983),active: 0.445
6,MACF1 isoform 3 (UniProt Q9UPN3),inactive: -0.027
7,MAN2A1 (UniProt Q16706),inactive: 0.013
8,MAN2B1 (UniProt O00754),inactive: 0.007
9,MAP2K1 (UniProt Q02750),active: 0.519
10,MAP4 isoform 5 (UniProt P27816),inactive: 0.027
11,MAD2L2 (UniProt Q9UI95),inactive: -0.173
12,MAP3K20 (UniProt Q9NYL2),inactive: -0.015
13,MARCKS (UniProt P29966),inactive: 0.05
14,MAP4 (UniProt E7EVA0),inactive: -0.009
15,MAF1 (UniProt Q9H063),inactive: -0.001
16,MAPK1 (UniProt P28482),inactive: 0
